From doi:10.1101/2025.07.20.665823

Columns and labels:
Test in all cases: co-IP; ERECTA-HA and PICALM-GFP co-expressed in Arabidopsis protoplasts; GFP-Trap magnetic agarose, 4 °C, 1 hr, buffer with 150 mM NaCl and 1 % Triton X-100; immunoblot
[1] = biological target: PICALM4A-GFP (Arabidopsis thaliana)
[2] = biological target: PICALM3-GFP (Arabidopsis thaliana)
[3] = biological target: PICALM4B-GFP (Arabidopsis thaliana)

binding [1]: binds | binding [2]: binds | binding [3]: binds
B1: ERECTA-HA (receptor, UniProt Q42371 25-976)
chain: EEGATLLEIKKSFKDVNNVLYDWTTSPSSDYCVWRGVSCENVTFNVVALNLSDLNLDGEISPAIGDLKSLLSIDLRGNRLSGQIPDEIGDCSSLQNLDLSFNELSGDIPFSISKLKQLEQLILKNNQLIGPIPSTLSQIPNLKILDLAQNKLSGEIPRLIYWNEVLQYLGLRGNNLVGNISPDLCQLTGLWYFDVRNNSLTGSIPETIGNCTAFQVLDLSYNQLTGEIPFDIGFLQVATLSLQGNQLSGKIPSVIGLMQALAVLDLSGNLLSGSIPPILGNLTFTEKLYLHSNKLTGSIPPELGNMSKLHYLELNDNHLTGHIPPELGKLTDLFDLNVANNDLEGPIPDHLSSCTNLNSLNVHGNKFSGTIPRAFQKLESMTYLNLSSNNIKGPIPVELSRIGNLDTLDLSNNKINGIIPSSLGDLEHLLKMNLSRNHITGVVPGDFGNLRSIMEIDLSNNDISGPIPEELNQLQNIILLRLENNNLTGNVGSLANCLSLTVLNVSHNNLVGDIPKNNNFSRFSPDSFIGNPGLCGSWLNSPCHDSRRTVRVSISRAAILGIAIGGLVILLMVLIAACRPHNPPPFLDGSLDKPVTYSTPKLVILHMNMALHVYEDIMRMTENLSEKYIIGHGASSTVYKCVLKNCKPVAIKRLYSHNPQSMKQFETELEMLSSIKHRNLVSLQAYSLSHLGSLLFYDYLENGSLWDLLHGPTKKKTLDWDTRLKIAYGAAQGLAYLHHDCSPRIIHRDVKSSNILLDKDLEARLTDFGIAKSLCVSKSHTSTYVMGTIGYIDPEYARTSRLTEKSDVYSYGIVLLELLTRRKAVDDESNLHHLIMSKTGNNEVMEMADPDITSTCKDLGVVKKVFQLALLCTKRQPNDRPTMHQVTRVLGSFMLSEQPPAATDTSATLAGSCYVDEYANLKTPHSVNCSSMSASDAQLFLRFGQVISQNSE

Results are given in words; binding and its absence hold for the method and conditions named. Binding seen in cells or lysates may run through a third protein. Binding can be weak; no strength is given. Tags and fused reporters may be left off the sequences shown.
